The values below come from article PMC11165742.

The chains behind the UniProt entries cited, without tags or fusion partners.
UniProt D2IE28: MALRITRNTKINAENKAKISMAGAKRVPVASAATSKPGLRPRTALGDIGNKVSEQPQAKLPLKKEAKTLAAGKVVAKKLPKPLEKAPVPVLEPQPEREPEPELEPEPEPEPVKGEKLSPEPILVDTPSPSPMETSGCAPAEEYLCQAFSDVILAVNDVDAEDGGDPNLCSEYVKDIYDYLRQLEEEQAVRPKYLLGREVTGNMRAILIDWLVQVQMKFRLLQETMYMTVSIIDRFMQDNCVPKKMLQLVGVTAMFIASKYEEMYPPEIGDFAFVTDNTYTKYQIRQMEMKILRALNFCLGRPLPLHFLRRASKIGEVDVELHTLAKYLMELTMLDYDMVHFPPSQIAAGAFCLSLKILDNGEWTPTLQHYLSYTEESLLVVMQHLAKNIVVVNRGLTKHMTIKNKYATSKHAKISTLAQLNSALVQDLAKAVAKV
UniProt Q6SEG5: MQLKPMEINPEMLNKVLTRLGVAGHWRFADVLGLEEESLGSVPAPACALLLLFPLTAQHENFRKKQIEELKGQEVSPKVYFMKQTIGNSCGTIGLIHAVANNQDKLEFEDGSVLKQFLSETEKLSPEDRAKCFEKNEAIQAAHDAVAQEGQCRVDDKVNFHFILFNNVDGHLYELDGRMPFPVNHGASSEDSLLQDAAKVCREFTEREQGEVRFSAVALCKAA

Test [1] has as its target cyclin B1 (CCNB1) (pig (endogenous in porcine granulosa cells)) (UniProt D2IE28). Kind of test: co-IP; porcine GC lysate (IP cell lysate buffer) with anti-UCHL1, anti-CCNB1 or IgG overnight at 4 °C, protein G magnetic beads 2 h, washed three times, immunoblot; both directions. A general note: A western blot detects proteins with antibodies after separation by electrophoresis.

The target in test [2] is ubiquitin carboxyl-terminal hydrolase 1 (UCHL1) (pig (endogenous in porcine granulosa cells)) (UniProt Q6SEG5). The test is described as above.

No constants are given. Whether binding was seen depends on the method and setting. In cells and extracts the contact can be indirect. Some binding calls cover weakened binding; strength is not graded here.

“ubiquitin carboxyl-terminal hydrolase 1 (UCHL1) (from UniProt Q6SEG5 1-223) (enzyme)”: the binding entry in test [1] was “binds”.

Consider “cyclin B1 (CCNB1) (from UniProt D2IE28 1-435)”, for which the binding entry in test [2] is “binds”.
